Data reported in article PMC9223716.
Results are given in words; binding and its absence hold for the method and conditions named. In cells and extracts the contact can be indirect. A result given as binding can be weak or reduced; the word gives no strength.

Target: T1, Inositol 1,4,5-triphosphate receptor-associated 2 (IRAG2) (mouse (endogenous in murine platelets)) (UniProt Q60664)
T1 sequence: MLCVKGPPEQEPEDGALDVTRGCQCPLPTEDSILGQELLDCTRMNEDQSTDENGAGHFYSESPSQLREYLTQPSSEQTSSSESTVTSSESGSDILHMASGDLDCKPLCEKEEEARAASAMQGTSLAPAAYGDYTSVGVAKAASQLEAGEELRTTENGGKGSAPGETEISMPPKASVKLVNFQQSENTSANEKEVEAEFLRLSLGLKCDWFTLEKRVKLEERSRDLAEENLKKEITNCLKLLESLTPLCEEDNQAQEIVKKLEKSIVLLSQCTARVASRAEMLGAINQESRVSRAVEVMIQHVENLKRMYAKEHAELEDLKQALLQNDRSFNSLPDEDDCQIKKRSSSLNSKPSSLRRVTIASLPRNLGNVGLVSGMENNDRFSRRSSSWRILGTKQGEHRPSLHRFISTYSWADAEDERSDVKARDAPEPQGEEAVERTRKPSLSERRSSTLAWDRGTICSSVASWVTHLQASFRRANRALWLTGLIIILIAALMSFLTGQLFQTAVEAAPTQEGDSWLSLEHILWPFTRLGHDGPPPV
Assay: co-IP; IRAG2 precipitated with anti-mouse LRMP (C-terminal) antibody and Protein-A-Sepharose from 1000 µg platelet lysate of IRAG2-WT and IRAG2-KO mice; 50 mM Tris HCl, 15 mM EGTA, 100 mM NaCl, 0.1% Triton X-100, pH 7.5, 1 mM DTT; Western Blot of partners

## IP3 receptor type 2 (IP3R2) (mouse (endogenous in murine platelets))
  binding: binds weakly
